These results are taken from doi:10.1101/2021.08.25.457680.

Chains of the proteins cited; added tags and fusions are not shown.
UniProt O00560, whole entry: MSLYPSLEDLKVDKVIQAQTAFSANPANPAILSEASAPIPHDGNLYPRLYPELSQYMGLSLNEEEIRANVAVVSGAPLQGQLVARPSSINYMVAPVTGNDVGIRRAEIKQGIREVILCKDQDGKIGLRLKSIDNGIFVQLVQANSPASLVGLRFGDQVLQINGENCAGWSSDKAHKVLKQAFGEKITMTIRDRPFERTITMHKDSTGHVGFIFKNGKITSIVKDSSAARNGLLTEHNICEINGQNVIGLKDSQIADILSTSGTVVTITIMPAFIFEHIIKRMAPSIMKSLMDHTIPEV

Results are given in words; binding and its absence hold for the method and conditions named. For some of these results: Binding seen in cells or lysates may run through a third protein. Some results given as binding are weak or reduced against the parent protein; the word gives no strength. For some of these results: Where a sequence is shown, tags or fusion partners need not be part of it.

In test [1] the target is Tax-1 fused to the Gal4 DNA-binding (DB) domain (HTLV-1) (UniProt P03409). In words: two-hybrid.
The target of test [2] is Flag-Syntenin (Flag-SDCBP, syntenin-1) (human) (UniProt O00560). In words: co-IP.
For test [3], the target named is T1, SDCBP2 (syntenin-2) expressed in transfected HEK293 cells (human) (UniProt Q9H190).
T1 sequence: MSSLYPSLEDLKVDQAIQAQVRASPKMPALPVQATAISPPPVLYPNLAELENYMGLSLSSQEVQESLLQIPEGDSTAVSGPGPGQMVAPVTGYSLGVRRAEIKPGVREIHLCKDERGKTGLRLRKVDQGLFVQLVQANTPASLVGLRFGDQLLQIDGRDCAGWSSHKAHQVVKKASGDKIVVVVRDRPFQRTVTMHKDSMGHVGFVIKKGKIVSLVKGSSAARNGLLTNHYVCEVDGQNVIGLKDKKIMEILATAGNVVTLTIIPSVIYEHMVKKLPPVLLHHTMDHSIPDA
Put plainly: co-IP.

Regarding “SDCBP fused to Gal4 activating domain (AD) (from UniProt O00560 1-298)”, the binding entry in test [1] was “binds”.

On to “Tax-1 expressed in transfected HEK293 cells (from UniProt P03409 1-353)”, for which the binding result in test [2] and in test [3] was “binds” each time.

B1: SDCBP2 fused to Gal4 activating domain (AD) (protein, UniProt Q9H190 1-292)
chain: MSSLYPSLEDLKVDQAIQAQVRASPKMPALPVQATAISPPPVLYPNLAELENYMGLSLSSQEVQESLLQIPEGDSTAVSGPGPGQMVAPVTGYSLGVRRAEIKPGVREIHLCKDERGKTGLRLRKVDQGLFVQLVQANTPASLVGLRFGDQLLQIDGRDCAGWSSHKAHQVVKKASGDKIVVVVRDRPFQRTVTMHKDSMGHVGFVIKKGKIVSLVKGSSAARNGLLTNHYVCEVDGQNVIGLKDKKIMEILATAGNVVTLTIIPSVIYEHMVKKLPPVLLHHTMDHSIPDA
Consider B1, for which, in test [1], the binding entry is “binds”.
